Values of other authors in PMC11387443, “Determination of bisphosphonate properties in terms of bioavailability, bone affinity, and cytotoxicity” (Pharmacological Reports, 2024).

Design: method as in PMID 18056045
Conditions: cited from earlier work

SMILES: NCCCC(O)(P(=O)(O)O)P(=O)(O)O [alendronate]
- urinary excretion 24 h after the first dose: 44%
